# Measured values as given in patent publication US8110550B2, “HDAC inhibitors and hormone targeted drugs for the treatment of cancer” (University of Maryland, Baltimore, priority 2007, dated 2012).
# At least one compound was matched to its structure with a doubt left.
# Tested on: ER- MDA-MB-231 cells
# Assay: MTT cell viability / proliferation assay, MDA-MB-231
# Assay type: cell-based
# Description: IC50 and IC25 values for inhibitors is calculated from the linear regression line of the plot of percentage inhibition versus log inhibitor concentration. These IC50 values is used for combination or sequencing studies. The effect of combination or sequence of treatment is determined at IC25 of each agent.
# For a cell proliferation assay, 10^4 cells were plated in a 96 well plate and treated with indicated drugs for 6 days. The medium was replaced after 3 days. On day 7, 500 μg/ml of MTT solution was added to each well and cells incubated for 3 hours. The tetrazolium dye trapped inside the mitochondria of the cells was dissolved in DMSO and the absorbance was measured at 560 nm.
compound,measurement,value
"C[C@]12CC[C@@H]3c4ccc(O)cc4CC[C@H]3[C@@H]1CC[C@@H]2O [E2, estradiol]",effect on proliferation of cells,not affected
